Data: PMC6224091
Results are given in words; binding and its absence hold for the method and conditions named. In cells and extracts the contact can be indirect. Some entries that bind do so weakly or less than the wild type. Sequences can lack the tags named with a protein.

Sequences of proteins named here, by UniProt entry; tags and fusion partners are left off.
UniProt Q6XZF7: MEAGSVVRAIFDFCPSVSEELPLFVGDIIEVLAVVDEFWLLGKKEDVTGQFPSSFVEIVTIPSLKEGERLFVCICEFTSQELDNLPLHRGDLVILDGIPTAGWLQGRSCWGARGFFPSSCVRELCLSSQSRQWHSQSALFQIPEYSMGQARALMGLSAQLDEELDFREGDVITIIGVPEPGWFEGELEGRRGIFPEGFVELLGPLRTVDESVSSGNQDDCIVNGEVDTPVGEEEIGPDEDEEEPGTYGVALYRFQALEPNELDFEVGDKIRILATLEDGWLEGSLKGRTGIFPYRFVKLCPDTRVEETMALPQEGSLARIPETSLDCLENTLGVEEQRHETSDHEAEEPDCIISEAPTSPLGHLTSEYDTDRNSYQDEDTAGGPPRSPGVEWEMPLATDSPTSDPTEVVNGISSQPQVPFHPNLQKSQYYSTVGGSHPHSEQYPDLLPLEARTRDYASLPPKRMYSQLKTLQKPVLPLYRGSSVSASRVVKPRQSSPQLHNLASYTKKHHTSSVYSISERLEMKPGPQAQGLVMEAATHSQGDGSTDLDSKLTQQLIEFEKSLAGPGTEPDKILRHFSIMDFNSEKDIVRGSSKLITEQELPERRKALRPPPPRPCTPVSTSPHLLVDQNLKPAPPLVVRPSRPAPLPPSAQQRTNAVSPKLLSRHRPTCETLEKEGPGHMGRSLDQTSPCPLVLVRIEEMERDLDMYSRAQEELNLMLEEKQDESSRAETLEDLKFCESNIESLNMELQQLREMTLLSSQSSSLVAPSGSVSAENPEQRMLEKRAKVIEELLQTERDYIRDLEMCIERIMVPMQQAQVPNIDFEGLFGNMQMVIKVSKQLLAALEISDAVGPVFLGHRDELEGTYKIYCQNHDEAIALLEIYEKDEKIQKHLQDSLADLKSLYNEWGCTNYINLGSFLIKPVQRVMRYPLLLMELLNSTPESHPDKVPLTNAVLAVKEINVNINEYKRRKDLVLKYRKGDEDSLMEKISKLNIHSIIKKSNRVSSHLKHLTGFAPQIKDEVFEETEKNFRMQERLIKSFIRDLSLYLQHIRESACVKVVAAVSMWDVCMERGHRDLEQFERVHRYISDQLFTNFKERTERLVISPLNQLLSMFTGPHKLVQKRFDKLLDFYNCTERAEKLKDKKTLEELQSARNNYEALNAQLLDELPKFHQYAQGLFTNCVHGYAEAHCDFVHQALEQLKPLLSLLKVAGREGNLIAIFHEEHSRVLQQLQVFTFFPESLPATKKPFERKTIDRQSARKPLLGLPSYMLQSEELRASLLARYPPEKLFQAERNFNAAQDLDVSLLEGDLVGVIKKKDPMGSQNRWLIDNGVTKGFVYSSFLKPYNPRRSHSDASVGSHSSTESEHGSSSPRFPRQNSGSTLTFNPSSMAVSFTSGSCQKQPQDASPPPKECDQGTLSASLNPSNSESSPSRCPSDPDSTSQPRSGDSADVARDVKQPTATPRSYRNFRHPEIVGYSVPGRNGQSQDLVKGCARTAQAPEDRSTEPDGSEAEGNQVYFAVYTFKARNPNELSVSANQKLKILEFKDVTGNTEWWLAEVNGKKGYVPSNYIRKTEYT

What was measured:
[1] = target: YFP-Tuba (UniProt Q6XZF7); assay: co-IP; YFP-Tuba captured on agarose beads coupled to GFP-binding protein (GBP) from cleared lysate of transfected HEK293T cells, 1 h at 4°C; 1% Nonidet P-40 substitute, 10% glycerol, 50 mM Tris-HCl pH 7.4, 2.0 mM MgCl2, 200 mM NaCl; without HA-Cdc42(G12V)
[2] = target: YFP-Tuba (UniProt Q6XZF7); assay: co-IP; YFP-Tuba captured on agarose beads coupled to GFP-binding protein (GBP) from cleared lysate of transfected HEK293T cells, 1 h at 4°C; 1% Nonidet P-40 substitute, 10% glycerol, 50 mM Tris-HCl pH 7.4, 2.0 mM MgCl2, 200 mM NaCl; V5-Par6A (WT or mutant), HA-Cdc42(G12V) and YFP-Tuba co-expressed

B1: V5-Par6A (wild type) (protein, UniProt Q9NPB6 1-346)
chain: MARPQRTPARSPDSIVEVKSKFDAEFRRFALPRASVSGFQEFSRLLRAVHQIPGLDVLLGYTDAHGDLLPLTNDDSLHRALASGPPPLRLLVQKRAEADSSGLAFASNSLQRRKKGLLLRPVAPLRTRPPLLISLPQDFRQVSSVIDVDLLPETHRRVRLHKHGSDRPLGFYIRDGMSVRVAPQGLERVPGIFISRLVRGGLAESTGLLAVSDEILEVNGIEVAGKTLDQVTDMMVANSHNLIVTVKPANQRNNVVRGASGRLTGPPSAGPGPAEPDSDDDSSDLVIENRQPPSSNGLSQGPPCWDLHPGCRHPGTRSSLPSLDDQEQASSGWGSRIRGDGSGFSL
binding [1]: binds weakly | binding [2]: binds

B2: V5-Par6A(ΔCRIB) (protein, UniProt Q9NPB6)
chain: MARPQRTPARSPDSIVEVKSKFDAEFRRFALPRASVSGFQEFSRLLRAVHQIPGLDVLLGYTDAHGDLLPLTNDDSLHRALASGPPPLRLLVQKRAEADSSGLAFASNSLQRRKKGLLLRPVAPLRTRPPLLIPETHRRVRLHKHGSDRPLGFYIRDGMSVRVAPQGLERVPGIFISRLVRGGLAESTGLLAVSDEILEVNGIEVAGKTLDQVTDMMVANSHNLIVTVKPANQRNNVVRGASGRLTGPPSAGPGPAEPDSDDDSSDLVIENRQPPSSNGLSQGPPCWDLHPGCRHPGTRSSLPSLDDQEQASSGWGSRIRGDGSGFSL
binding [2]: binds weakly

B3: V5-Par6A(I133A,S134A) (protein, UniProt Q9NPB6 1-346)
chain: MARPQRTPARSPDSIVEVKSKFDAEFRRFALPRASVSGFQEFSRLLRAVHQIPGLDVLLGYTDAHGDLLPLTNDDSLHRALASGPPPLRLLVQKRAEADSSGLAFASNSLQRRKKGLLLRPVAPLRTRPPLLAALPQDFRQVSSVIDVDLLPETHRRVRLHKHGSDRPLGFYIRDGMSVRVAPQGLERVPGIFISRLVRGGLAESTGLLAVSDEILEVNGIEVAGKTLDQVTDMMVANSHNLIVTVKPANQRNNVVRGASGRLTGPPSAGPGPAEPDSDDDSSDLVIENRQPPSSNGLSQGPPCWDLHPGCRHPGTRSSLPSLDDQEQASSGWGSRIRGDGSGFSL
binding [2]: binds weakly
